Laboratory results: paper PMC9677703
These are yes or no findings as the source states them, for the method shown. In cells and extracts the contact can be indirect. Here binding means that the protein was enriched with, or labelled near, the bait; the list need not be complete. Where a sequence is shown, tags or fusion partners need not be part of it.

Molecular target: T1, recombinant His-tagged FGF12 (UniProt P61328)
T1 sequence: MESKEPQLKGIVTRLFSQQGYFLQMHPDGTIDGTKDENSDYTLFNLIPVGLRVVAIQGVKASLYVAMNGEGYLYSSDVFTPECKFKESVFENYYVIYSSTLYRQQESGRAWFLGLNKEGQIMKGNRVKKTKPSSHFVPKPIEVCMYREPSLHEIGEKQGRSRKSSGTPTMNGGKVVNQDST
Experiment: affinity purification with mass spectrometry; recombinant His-tagged FGF12 coupled to Ni-NTA / Ni Sepharose resin, incubated with U2OS cell lysate; on-bead trypsin digestion, LC-MS/MS; only the target purified

B1: treacle ribosome biogenesis factor 1 (protein, UniProt Q13428 1-1488)
chain: MAEARKRRELLPLIYHHLLRAGYVRAAREVKEQSGQKCFLAQPVTLLDIYTHWQQTSELGRKRKAEEDAALQAKKTRVSDPISTSESSEEEEEAEAETAKATPRLASTNSSVLGADLPSSMKEKAKAETEKAGKTGNSMPHPATGKTVANLLSGKSPRKSAEPSANTTLVSETEEEGSVPAFGAAAKPGMVSAGQADSSSEDTSSSSDETDVEGKPSVKPAQVKASSVSTKESPARKAAPAPGKVGDVTPQVKGGALPPAKRAKKPEEESESSEEGSESEEEAPAGTRSQVKASEKILQVRAASAPAKGTPGKGATPAPPGKAGAVASQTKAGKPEEDSESSSEESSDSEEETPAAKALLQAKASGKTSQVGAASAPAKESPRKGAAPAPPGKTGPAVAKAQAGKREEDSQSSSEESDSEEEAPAQAKPSGKAPQVRAASAPAKESPRKGAAPAPPRKTGPAAAQVQVGKQEEDSRSSSEESDSDREALAAMNAAQVKPLGKSPQVKPASTMGMGPLGKGAGPVPPGKVGPATPSAQVGKWEEDSESSSEESSDSSDGEVPTAVAPAQEKSLGNILQAKPTSSPAKGPPQKAGPVAVQVKAEKPMDNSESSEESSDSADSEEAPAAMTAAQAKPALKIPQTKACPKKTNTTASAKVAPVRVGTQAPRKAGTATSPAGSSPAVAGGTQRPAEDSSSSEESDSEEEKTGLAVTVGQAKSVGKGLQVKAASVPVKGSLGQGTAPVLPGKTGPTVTQVKAEKQEDSESSEEESDSEEAAASPAQVKTSVKKTQAKANPAAARAPSAKGTISAPGKVVTAAAQAKQRSPSKVKPPVRNPQNSTVLARGPASVPSVGKAVATAAQAQTGPEEDSGSSEEESDSEEEAETLAQVKPSGKTHQIRAALAPAKESPRKGAAPTPPGKTGPSAAQAGKQDDSGSSSEESDSDGEAPAAVTSAQVIKPPLIFVDPNRSPAGPAATPAQAQAASTPRKARASESTARSSSSESEDEDVIPATQCLTPGIRTNVVTMPTAHPRIAPKASMAGASSSKESSRISDGKKQEGPATQVSKKNPASLPLTQAALKVLAQKASEAQPPVARTQPSSGVDSAVGTLPATSPQSTSVQAKGTNKLRKPKLPEVQQATKAPESSDDSEDSSDSSSGSEEDGEGPQGAKSAHTLGPTPSRTETLVEETAAESSEDDVVAPSQSLLSGYMTPGLTPANSQASKATPKLDSSPSVSSTLAAKDDPDGKQEAKPQQAAGMLSPKTGGKEAASGTTPQKSRKPKKGAGNPQASTLALQSNITQCLLGQPWPLNEAQVQASVVKVLTELLEQERKKVVDTTKESSRKGWESRKRKLSGDQPAARTPRSKKKKKLGAGEGGEASVSPEKTSTTSKGKAKRDKASGDVKEKKGKGSLGSQGAKDEPEEELQKGMGTVEGGDQSNPKSKKEKKKSDKRKKDKEKKEKKKKAKKASTKDSESPSQKKKKKKKKTAEQTV
modifications: heavily phosphorylated (sites not given)
- binding: binds

B2: Thyroid hormone receptor-associated protein 3 (protein, UniProt Q9Y2W1 1-955)
chain: MSKTNKSKSGSRSSRSRSASRSRSRSFSKSRSRSRSLSRSRKRRLSSRSRSRSYSPAHNRERNHPRVYQNRDFRGHNRGYRRPYYFRGRNRGFYPWGQYNRGGYGNYRSNWQNYRQAYSPRRGRSRSRSPKRRSPSPRSRSHSRNSDKSSSDRSRRSSSSRSSSNHSRVESSKRKSAKEKKSSSKDSRPSQAAGDNQGDEAKEQTFSGGTSQDTKASESSKPWPDATYGTGSASRASAVSELSPRERSPALKSPLQSVVVRRRSPRPSPVPKPSPPLSSTSQMGSTLPSGAGYQSGTHQGQFDHGSGSLSPSKKSPVGKSPPSTGSTYGSSQKEESAASGGAAYTKRYLEEQKTENGKDKEQKQTNTDKEKIKEKGSFSDTGLGDGKMKSDSFAPKTDSEKPFRGSQSPKRYKLRDDFEKKMADFHKEEMDDQDKDKAKGRKESEFDDEPKFMSKVIGANKNQEEEKSGKWEGLVYAPPGKEKQRKTEELEEESFPERSKKEDRGKRSEGGHRGFVPEKNFRVTAYKAVQEKSSSPPPRKTSESRDKLGAKGDFPTGKSSFSITREAQVNVRMDSFDEDLARPSGLLAQERKLCRDLVHSNKKEQEFRSIFQHIQSAQSQRSPSELFAQHIVTIVHHVKEHHFGSSGMTLHERFTKYLKRGTEQEAAKNKKSPEIHRRIDISPSTFRKHGLAHDEMKSPREPGYKAEGKYKDDPVDLRLDIERRKKHKERDLKRGKSRESVDSRDSSHSRERSAEKTEKTHKGSKKQKKHRRARDRSRSSSSSSQSSHSYKAEEYTEETEEREESTTGFDKSRLGTKDFVGPSERGGGRARGTFQFRARGRGWGRGNYSGNNNNNSNNDFQKRNREEEWDPEYTPKSKKYYLHDDREGEGSDKWVSRGRGRGAFPRGRGRFMFRKSSTSPKWAHDKFSGEEGEIEDDESGTENREEKDNIQPTTE
- binding: binds
